# Library screening results

The chains behind the UniProt entries cited, without tags or fusion partners.
UniProt E9BF75, entry or part of it: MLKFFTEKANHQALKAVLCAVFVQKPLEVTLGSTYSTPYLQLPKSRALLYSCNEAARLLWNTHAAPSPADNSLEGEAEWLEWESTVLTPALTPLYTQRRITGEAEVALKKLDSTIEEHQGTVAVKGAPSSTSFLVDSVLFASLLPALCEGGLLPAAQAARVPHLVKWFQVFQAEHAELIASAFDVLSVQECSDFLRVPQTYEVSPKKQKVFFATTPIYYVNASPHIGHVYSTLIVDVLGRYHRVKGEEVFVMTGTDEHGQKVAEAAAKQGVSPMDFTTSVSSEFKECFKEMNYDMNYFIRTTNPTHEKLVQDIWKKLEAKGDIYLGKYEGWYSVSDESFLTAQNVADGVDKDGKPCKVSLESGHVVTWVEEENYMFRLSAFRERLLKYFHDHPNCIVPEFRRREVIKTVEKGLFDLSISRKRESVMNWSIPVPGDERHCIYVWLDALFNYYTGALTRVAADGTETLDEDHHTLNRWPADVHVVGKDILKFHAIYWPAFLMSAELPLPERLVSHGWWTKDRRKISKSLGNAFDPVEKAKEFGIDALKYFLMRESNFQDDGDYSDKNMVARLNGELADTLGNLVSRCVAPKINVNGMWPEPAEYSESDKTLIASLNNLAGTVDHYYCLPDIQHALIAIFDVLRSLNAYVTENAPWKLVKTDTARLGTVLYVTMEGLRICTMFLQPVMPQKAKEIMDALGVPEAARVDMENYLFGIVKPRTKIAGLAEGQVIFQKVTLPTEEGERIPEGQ

Results are percentages, as filed.
How 0% and 100% were set is not recorded. Most values in the screen are low, and negative values occur.
This is an unselected part of the compounds tested.
A dash means the value is not listed here; it may have been measured.

LdMetRS: 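Primary screen of methionyl-tRNA synthetase; the read-out is not stated. Target: Methionyl-tRNA synthetase (putative), Leishmania donovani (UniProt E9BF75). The test concentration is not given. Values are per cent inhibition. Size under these conditions: about 68,000 compounds, about 24 of them at 50% or above in at least one test.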
Mtb heat-shock: 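Assay on Mycobacterium tuberculosis, filed only as a heat shock assay from Cornell; the read-out is not stated. The concentration is filed as 10 mM, unlikely as a test dose, so the dose is not known. Direction is inferred from retests: higher values go with stronger inhibition. Of about 69,000 compounds tested this way, about 930 (1.4%) reached 50% or more in at least one test.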

| # | structure | LdMetRS | Mtb heat-shock |
|---|---|---|---|
| 1 | `Cc1nc(CN2CCC(N(C)Cc3noc(C(C)C)n3)C2)cs1` (stereo not shown) | 1.478 | -18.85 |
| 2 | `Cc1cc(CN2CC[C@]3(C[C@@H](OCC(=O)N(C)C)CO3)C2)no1.O=C(O)C(F)(F)F` | - | -7.118 |
| 3 | `Cc1cccc(NC(=O)NC2CCN(C3CCOC3)CC2)c1` (stereo not shown) | 4.712 | -25.38 |
| 4 | `Cn1cc(-c2cnc3n2CCC32CCN(S(=O)(=O)C3CC3)CC2)cn1` | 7.343 | - |
| 5 | `CN(C)Cc1cnc2n1CCN(C(=O)Cc1cccc(F)c1)CC2.O=C(O)C(F)(F)F` | - | -28.02 |
| 6 | `FC(F)(F)CN1CCC(CCNc2ncccn2)CC1` | 14.66 | -8.271 |
| 7 | `Cc1cc(C[C@@H]2CCC[C@H]2NCc2ccccc2C(F)(F)F)on1` | 10.62 | - |
| 8 | `[H][C@]12CNC[C@@]1(C(=O)NCCCc1ccccc1)CN(C(=O)C1CC1)C2` | - | -13.58 |
| 9 | `CC(C)c1noc(CN(Cc2ccccc2)C2CC2)n1` | 1.907 | -13.55 |
| 10 | `CN(CCC(=O)N1CCc2sccc2C1)Cc1cc(Br)cs1` | 16.27 | 8.782 |
| 11 | `COc1ccc(NC(=O)N(C)Cc2ccc(Br)o2)cn1` | 5.455 | 8.073 |
| 12 | `CC1c2ncc(Cn3cncn3)n2CCN1CC1CCOCC1.O=C(O)C(F)(F)F` (stereo not shown) | - | -29.37 |
| 13 | `O=C(CSc1nnc(N2CCNCC2)s1)Nc1ccccc1.O=C(O)C(F)(F)F` | - | -1.012 |
| 14 | `CN1CCN(CCCNS(=O)(=O)Cc2ccccc2F)CC1` | - | -3.021 |
| 15 | `CCOCC1CN(C(=O)c2cnccn2)Cc2cnn(CC3CC3)c21` (stereo not shown) | 12 | - |
| 16 | `CC(=O)NCCCNC(=O)Nc1ccccc1-n1nc(C)cc1C` | 19.34 | 5.841 |
| 17 | `CCOCCn1c(=O)n(Cc2ccc(F)cc2)c2ncc(C(=O)O)cc21` | 10.1 | -1.989 |
| 18 | `Cc1cc(C)n(C2CN(CC(O)c3cc(F)ccc3F)C2)n1` (stereo not shown) | 13.25 | 14.67 |
| 19 | `Cc1nc(CNC(=O)Nc2cc(F)ccc2N2CCN(C)CC2)no1` | 10.92 | 12.9 |
| 20 | `CC(=O)c1c(F)cccc1N1CCC(C(N)=O)CC1` | 9.22 | 7.111 |
| 21 | `CCc1nnc(C2Cc3ccccc3CN2Cc2nc(C3CC3)no2)o1` (stereo not shown) | 10.65 | 1.896 |
| 22 | `[H][C@]12CCC[C@@]1(COCc1ccncc1)CN(C1CCOCC1)C2` | - | 19.98 |
| 23 | `CC(C)Nc1nc2c(c(NC3CC3)n1)CN(C(=O)c1ccncc1)CC2` | 10.87 | -2.802 |
| 24 | `COC(=O)C(NC(=O)COC1CCCCC1)c1ccccc1` (stereo not shown) | 21.56 | -39.86 |
| 25 | `CCn1nccc1CNC(=O)CCC1CCCC1` | 5.211 | 17.67 |
| 26 | `COc1cccc(S(=O)(=O)CCN2CCCN(C(C)=O)CC2)c1` | 2.927 | 1.49 |
| 27 | `c1cnc(N2CCc3onc(CN4CCOCC4)c3C2)cn1` | 13.11 | 34.42 |
| 28 | `OC1(CN2CCCCC2)CCN(Cc2c[nH]c(CC3CCCC3)n2)C1` (stereo not shown) | 10.99 | 56.92 |
| 29 | `COCCN(C)C1COC2(CCN(Cc3ccccn3)CC2)C1.O=C(O)C(F)(F)F.O=C(O)C(F)(F)F` (stereo not shown) | - | -27.77 |
| 30 | `Cc1n[nH]c(C)c1CCNC(=O)C1CCCN(Cc2ccco2)C1` (stereo not shown) | 7.971 | -3.012 |
| 31 | `Oc1cccc(CN2C[C@H]3CC[C@@H]2CN(Cc2ccncc2)C3)c1` | 9.966 | - |
| 32 | `Cc1cc(CN2C[C@@H]3COC[C@]3(COCc3csc(C)n3)C2)no1` | 0.7299 | - |
| 33 | `CCN1CC(C(=O)NCc2ccnc(-n3ccnc3C)c2)CC1=O` (stereo not shown) | 1.478 | -9.023 |
| 34 | `CC(C)c1nn(C)c(N2CCOCC2)c1CNC(C)c1ccco1` (stereo not shown) | 21.71 | -17.72 |
| 35 | `CN1CCc2nc(C3CCCCN3Cc3ccccc3Cl)ncc2C1` (stereo not shown) | 28.48 | -4.117 |
| 36 | `O=C1C[C@H]2[C@@H](CCN2C(=O)Cc2cccs2)N1CC1CC1` | 8.964 | - |
| 37 | `CC(C)CN1CCc2[nH]cnc2C12CCN(C(=O)c1ccc[nH]1)CC2` | 16.42 | -26.83 |
| 38 | `O=C(c1ccc(Cl)c(Cl)c1)N1CCCCC1C1OCCO1` (stereo not shown) | 15.36 | 12.96 |
| 39 | `OC[C@@H]1CCCN1c1nccc(-c2c[nH]nc2-c2ccncc2)n1` | 12.86 | 5.867 |
| 40 | `Cc1nn(C)c(N2CCOCC2)c1CNC(C)c1ccco1` (stereo not shown) | 9.735 | -9.09 |
| 41 | `Cc1nc(Cn2cc(C#N)c(=O)c3ccccc32)no1` | 9.409 | -6.547 |
| 42 | `O=C(O)C(F)(F)F.O=C(c1cnccn1)N1CC2(CCN(Cc3ccsc3)C2)C1` | - | -14.16 |
| 43 | `Cc1cccc(CN2CCc3ncnc(N4CCOCC4)c3CC2)n1` | 7.5 | - |
| 44 | `Cc1ccc(C(=O)OC(C)Cn2cccn2)c(=O)[nH]1` (stereo not shown) | -21.98 | 0.6246 |
| 45 | `CC(=O)N1CCCC1c1nccnc1NCc1cccnc1` (stereo not shown) | 18.1 | -9.234 |
| 46 | `CN1CCC(c2cc(C(F)(F)F)n3ccnc3n2)CC1` | -4.941 | -33.56 |
| 47 | `NC(=O)C1CCN(c2ccc(C(=O)N3CCc4ccccc43)cn2)C1` (stereo not shown) | 14.85 | -1.727 |
| 48 | `COCc1nnc(NC(=O)c2cn(C(C)C)c3ccc(OC)cc23)s1` | 10.24 | 8.881 |
| 49 | `Cc1ncc(C(=O)N2CCOC(C(=O)N3CCCCC3)C2)c(C)n1` (stereo not shown) | 7.558 | 9.552 |
| 50 | `COc1ccc(Br)c(C(=O)NCC2CCN(S(=O)(=O)C3CC3)CC2)c1` | 11.33 | -17.49 |
| 51 | `O=C(c1ccc(S(=O)(=O)N2CCSCC2)cc1)N1CCC(O)C1` (stereo not shown) | 16.62 | -2.895 |

6 of the entries, repeated:

- CCN1CC(C(=O)NCc2ccnc(-n3ccnc3C)c2)CC1=O (stereo not shown) | LdMetRS: 1.478%; Mtb heat-shock: -9.023%
- O=C(O)C(F)(F)F.O=C(c1cnccn1)N1CC2(CCN(Cc3ccsc3)C2)C1 | Mtb heat-shock: -14.16%
- Cc1nc(Cn2cc(C#N)c(=O)c3ccccc32)no1 | LdMetRS: 9.409%; Mtb heat-shock: -6.547%
- CN(CCC(=O)N1CCc2sccc2C1)Cc1cc(Br)cs1 | LdMetRS: 16.27%; Mtb heat-shock: 8.782%
- [H][C@]12CNC[C@@]1(C(=O)NCCCc1ccccc1)CN(C(=O)C1CC1)C2 | Mtb heat-shock: -13.58%
- COCCN(C)C1COC2(CCN(Cc3ccccn3)CC2)C1.O=C(O)C(F)(F)F.O=C(O)C(F)(F)F (stereo not shown) | Mtb heat-shock: -27.77%

Data taken from ChEMBL document CHEMBL3988442, “University of Dundee, Small-Polar-MMV Screening Library” (2021).